This note sets out measurements from publication PMC5425256.

The chains behind the UniProt entries cited, without tags or fusion partners.
UniProt Q9NQU5: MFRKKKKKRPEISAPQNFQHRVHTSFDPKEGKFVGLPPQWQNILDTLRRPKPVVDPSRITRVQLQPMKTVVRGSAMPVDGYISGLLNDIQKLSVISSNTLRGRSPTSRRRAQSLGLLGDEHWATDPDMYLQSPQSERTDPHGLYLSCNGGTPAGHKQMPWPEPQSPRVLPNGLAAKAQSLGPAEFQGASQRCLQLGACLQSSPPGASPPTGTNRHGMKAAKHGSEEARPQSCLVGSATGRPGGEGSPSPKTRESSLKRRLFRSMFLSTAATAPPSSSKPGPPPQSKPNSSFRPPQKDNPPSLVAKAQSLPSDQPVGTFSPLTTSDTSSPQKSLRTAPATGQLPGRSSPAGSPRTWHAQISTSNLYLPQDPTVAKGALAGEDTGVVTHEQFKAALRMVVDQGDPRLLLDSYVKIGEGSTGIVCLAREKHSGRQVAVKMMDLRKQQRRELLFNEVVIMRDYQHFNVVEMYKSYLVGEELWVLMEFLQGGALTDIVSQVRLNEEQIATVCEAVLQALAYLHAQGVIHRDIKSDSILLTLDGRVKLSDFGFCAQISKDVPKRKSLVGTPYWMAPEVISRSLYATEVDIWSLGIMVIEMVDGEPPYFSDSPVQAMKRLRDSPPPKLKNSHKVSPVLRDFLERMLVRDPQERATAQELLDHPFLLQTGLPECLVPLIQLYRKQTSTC
UniProt P61586: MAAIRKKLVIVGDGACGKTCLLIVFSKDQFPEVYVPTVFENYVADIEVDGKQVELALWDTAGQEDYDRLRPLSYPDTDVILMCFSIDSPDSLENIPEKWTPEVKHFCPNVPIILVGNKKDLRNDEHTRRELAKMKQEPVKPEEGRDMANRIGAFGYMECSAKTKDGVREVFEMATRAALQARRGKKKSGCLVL
UniProt P08134: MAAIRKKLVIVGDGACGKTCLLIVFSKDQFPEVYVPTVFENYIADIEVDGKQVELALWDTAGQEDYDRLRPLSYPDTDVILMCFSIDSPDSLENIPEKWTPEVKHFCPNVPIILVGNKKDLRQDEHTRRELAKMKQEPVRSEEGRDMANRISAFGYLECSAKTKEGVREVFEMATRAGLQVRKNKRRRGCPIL

The target of test [1] is T1, GFP-RhoD (pCB6 GFP-RhoD WT) (mouse) (UniProt P97348).
T1 sequence: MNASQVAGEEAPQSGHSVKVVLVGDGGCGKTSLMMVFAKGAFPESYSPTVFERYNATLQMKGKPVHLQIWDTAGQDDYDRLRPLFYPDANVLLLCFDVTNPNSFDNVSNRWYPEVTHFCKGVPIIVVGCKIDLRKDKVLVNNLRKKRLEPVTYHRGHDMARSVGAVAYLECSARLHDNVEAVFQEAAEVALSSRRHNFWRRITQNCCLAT
The test is described as follows: co-IP.

Test [2] addresses recombinant GST-Pak6 (from pMW-GST-Pak6, E. coli) (human) (UniProt Q9NQU5). The test is described as follows: pull-down; only the target purified.
The target is the same in test [3]. The test is described as follows: pull-down; both purified.

Results are given in words; binding and its absence hold for the method and conditions named. For some assays here: Binding seen in cells or lysates may run through a third protein. Some binding calls cover weakened binding; strength is not graded here. For some assays here: Tags and fused reporters may be left off the sequences shown.

With “Myc-Pak6 (pCB6-Myc-Pak6) (from UniProt Q9NQU5 1-681) (enzyme)”, the binding result in test [1] is given as “binds”.

Turning to “RhoA from HeLa cell lysates (from UniProt P61586 1-193)”, the binding entry in test [2] is “no binding”.

Turning to “RhoC from HeLa cell lysates (from UniProt P08134 1-193)”, the binding entry in test [2] is given as “no binding”.

“recombinant His-RhoA loaded with GTPγS (from UniProt P61586 1-193)”: the binding entry in test [3] is “no binding”.

As to “recombinant His-RhoC loaded with GTPγS (from UniProt P08134 1-193)”, the binding entry in test [3] was “no binding”.
